# Measurements as given in the supplement of paper PMC10032668.
# The chains behind the UniProt entries cited, without tags or fusion partners.
# C3, P01024, UniProt P01024, whole entry: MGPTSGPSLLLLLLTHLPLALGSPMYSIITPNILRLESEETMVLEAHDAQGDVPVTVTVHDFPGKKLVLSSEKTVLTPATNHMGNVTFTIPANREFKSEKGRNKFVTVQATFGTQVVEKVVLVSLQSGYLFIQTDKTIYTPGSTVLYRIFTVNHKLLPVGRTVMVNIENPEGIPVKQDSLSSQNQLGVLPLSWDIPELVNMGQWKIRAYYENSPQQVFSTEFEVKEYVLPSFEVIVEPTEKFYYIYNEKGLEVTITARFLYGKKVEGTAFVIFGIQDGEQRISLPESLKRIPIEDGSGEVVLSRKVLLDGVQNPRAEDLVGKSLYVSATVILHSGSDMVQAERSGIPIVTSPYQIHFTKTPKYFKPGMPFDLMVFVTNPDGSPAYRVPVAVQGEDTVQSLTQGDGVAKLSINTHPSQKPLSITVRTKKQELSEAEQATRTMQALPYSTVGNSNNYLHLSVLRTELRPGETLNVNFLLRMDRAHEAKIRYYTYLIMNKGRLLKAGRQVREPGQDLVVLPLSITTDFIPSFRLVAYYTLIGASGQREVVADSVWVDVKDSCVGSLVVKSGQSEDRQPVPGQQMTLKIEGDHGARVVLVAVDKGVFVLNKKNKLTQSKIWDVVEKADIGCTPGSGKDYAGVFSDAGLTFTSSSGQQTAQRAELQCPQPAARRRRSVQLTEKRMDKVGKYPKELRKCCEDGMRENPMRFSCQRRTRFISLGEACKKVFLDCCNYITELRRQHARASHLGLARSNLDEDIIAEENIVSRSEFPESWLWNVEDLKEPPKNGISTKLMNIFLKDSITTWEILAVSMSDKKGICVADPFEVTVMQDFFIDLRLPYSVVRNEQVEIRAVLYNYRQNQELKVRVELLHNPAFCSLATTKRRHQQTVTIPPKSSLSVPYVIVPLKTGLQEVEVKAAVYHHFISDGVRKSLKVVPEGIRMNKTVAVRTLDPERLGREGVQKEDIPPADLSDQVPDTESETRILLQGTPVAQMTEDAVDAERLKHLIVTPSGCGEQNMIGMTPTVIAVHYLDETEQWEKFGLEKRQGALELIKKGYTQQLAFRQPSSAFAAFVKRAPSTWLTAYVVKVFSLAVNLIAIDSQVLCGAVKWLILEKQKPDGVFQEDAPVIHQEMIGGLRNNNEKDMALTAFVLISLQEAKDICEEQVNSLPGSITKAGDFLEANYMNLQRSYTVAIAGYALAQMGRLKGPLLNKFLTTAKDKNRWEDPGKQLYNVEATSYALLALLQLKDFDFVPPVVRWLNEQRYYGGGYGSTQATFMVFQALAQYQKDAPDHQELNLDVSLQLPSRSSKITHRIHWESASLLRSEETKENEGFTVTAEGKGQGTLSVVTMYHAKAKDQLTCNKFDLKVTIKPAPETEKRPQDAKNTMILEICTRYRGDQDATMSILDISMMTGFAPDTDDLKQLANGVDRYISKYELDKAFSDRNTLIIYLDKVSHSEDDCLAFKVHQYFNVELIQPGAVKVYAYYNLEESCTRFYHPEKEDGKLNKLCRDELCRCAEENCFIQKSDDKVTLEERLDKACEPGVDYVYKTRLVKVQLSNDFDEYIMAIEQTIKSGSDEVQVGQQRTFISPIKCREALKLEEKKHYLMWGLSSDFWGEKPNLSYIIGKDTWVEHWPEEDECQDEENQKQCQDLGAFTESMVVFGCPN
# NDUFS7, O75251, UniProt O75251, whole entry: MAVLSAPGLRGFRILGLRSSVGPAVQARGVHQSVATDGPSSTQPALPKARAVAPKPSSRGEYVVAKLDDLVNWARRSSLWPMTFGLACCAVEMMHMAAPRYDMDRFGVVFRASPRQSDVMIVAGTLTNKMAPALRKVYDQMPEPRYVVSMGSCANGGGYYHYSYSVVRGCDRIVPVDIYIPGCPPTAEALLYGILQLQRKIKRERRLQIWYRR
# NELFA, Q9H3P2, UniProt Q9H3P2, whole entry: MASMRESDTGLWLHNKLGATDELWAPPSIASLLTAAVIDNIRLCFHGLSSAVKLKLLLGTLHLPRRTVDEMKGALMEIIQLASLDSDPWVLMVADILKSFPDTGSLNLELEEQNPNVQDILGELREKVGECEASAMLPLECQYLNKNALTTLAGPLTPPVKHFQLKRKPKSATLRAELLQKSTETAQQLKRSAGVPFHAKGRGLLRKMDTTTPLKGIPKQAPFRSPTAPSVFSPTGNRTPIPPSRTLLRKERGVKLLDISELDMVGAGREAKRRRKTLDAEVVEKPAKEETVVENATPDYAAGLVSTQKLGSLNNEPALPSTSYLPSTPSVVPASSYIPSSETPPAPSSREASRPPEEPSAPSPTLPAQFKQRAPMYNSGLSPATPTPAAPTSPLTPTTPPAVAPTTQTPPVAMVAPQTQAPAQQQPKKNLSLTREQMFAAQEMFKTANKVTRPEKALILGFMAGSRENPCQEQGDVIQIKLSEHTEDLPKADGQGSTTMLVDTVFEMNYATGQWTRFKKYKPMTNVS
# PIN1, Q13526, UniProt Q13526, whole entry: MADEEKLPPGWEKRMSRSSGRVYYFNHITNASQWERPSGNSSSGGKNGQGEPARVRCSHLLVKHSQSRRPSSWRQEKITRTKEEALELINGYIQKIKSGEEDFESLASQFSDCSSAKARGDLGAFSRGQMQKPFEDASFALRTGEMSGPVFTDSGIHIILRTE
# TELO2, Q9Y4R8, UniProt Q9Y4R8, whole entry: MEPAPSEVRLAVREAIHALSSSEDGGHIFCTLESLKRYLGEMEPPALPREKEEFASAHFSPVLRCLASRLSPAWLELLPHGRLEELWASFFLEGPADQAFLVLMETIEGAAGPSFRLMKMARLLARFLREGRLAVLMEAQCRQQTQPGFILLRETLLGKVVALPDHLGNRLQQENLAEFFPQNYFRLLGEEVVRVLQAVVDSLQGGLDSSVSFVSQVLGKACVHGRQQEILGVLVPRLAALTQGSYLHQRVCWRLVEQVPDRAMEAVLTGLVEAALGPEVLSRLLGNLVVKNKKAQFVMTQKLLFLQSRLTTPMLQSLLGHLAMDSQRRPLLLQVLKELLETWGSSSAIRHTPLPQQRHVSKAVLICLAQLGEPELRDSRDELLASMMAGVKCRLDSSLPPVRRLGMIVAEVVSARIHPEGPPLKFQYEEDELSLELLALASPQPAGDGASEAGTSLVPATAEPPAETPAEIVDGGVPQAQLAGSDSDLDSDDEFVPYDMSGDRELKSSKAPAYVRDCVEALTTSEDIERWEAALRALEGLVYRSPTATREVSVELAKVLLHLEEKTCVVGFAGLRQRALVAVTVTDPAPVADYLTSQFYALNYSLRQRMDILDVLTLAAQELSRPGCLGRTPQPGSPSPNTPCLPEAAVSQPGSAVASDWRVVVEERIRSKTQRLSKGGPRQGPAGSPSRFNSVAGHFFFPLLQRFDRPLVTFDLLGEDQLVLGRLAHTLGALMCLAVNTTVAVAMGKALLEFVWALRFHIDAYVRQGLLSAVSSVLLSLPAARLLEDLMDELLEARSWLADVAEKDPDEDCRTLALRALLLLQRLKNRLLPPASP
# TF, P02787, UniProt P02787, whole entry: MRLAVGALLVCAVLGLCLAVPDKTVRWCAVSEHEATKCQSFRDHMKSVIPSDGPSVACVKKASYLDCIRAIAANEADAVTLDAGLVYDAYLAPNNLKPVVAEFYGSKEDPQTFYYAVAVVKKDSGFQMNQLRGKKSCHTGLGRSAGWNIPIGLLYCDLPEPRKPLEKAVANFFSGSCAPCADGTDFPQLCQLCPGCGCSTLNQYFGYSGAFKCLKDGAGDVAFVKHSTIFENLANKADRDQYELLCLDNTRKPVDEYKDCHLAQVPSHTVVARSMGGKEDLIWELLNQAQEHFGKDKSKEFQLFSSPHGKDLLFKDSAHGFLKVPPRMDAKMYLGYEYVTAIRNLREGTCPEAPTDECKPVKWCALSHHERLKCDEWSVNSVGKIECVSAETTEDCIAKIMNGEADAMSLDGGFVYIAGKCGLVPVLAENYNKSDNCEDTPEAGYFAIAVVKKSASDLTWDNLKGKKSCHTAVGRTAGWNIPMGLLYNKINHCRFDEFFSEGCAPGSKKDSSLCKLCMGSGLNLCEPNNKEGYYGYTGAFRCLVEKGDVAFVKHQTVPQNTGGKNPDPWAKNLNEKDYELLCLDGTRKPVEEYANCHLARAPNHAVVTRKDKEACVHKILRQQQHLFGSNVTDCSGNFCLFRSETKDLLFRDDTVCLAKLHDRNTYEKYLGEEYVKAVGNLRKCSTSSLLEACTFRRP
# ATP6V1H, Q9UI12, UniProt Q9UI12, whole entry: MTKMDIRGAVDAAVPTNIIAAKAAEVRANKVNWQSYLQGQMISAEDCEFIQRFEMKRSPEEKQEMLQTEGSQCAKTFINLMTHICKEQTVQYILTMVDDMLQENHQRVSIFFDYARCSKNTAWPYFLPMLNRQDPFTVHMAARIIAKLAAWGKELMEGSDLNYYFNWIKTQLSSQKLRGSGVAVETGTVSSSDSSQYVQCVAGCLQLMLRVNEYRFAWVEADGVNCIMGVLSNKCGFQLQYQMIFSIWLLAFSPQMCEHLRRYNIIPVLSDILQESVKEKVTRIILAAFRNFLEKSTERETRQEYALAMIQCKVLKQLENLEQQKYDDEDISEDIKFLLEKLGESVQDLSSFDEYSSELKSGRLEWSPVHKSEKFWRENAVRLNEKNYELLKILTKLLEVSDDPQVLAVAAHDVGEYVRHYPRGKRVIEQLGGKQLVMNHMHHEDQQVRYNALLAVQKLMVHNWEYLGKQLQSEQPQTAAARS
# HBA1, P69905, UniProt P69905, whole entry: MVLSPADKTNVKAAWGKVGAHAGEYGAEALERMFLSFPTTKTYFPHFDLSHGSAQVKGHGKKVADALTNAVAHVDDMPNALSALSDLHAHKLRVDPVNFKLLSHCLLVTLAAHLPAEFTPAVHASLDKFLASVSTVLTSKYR
# INTS7, Q9NVH2, UniProt Q9NVH2, whole entry: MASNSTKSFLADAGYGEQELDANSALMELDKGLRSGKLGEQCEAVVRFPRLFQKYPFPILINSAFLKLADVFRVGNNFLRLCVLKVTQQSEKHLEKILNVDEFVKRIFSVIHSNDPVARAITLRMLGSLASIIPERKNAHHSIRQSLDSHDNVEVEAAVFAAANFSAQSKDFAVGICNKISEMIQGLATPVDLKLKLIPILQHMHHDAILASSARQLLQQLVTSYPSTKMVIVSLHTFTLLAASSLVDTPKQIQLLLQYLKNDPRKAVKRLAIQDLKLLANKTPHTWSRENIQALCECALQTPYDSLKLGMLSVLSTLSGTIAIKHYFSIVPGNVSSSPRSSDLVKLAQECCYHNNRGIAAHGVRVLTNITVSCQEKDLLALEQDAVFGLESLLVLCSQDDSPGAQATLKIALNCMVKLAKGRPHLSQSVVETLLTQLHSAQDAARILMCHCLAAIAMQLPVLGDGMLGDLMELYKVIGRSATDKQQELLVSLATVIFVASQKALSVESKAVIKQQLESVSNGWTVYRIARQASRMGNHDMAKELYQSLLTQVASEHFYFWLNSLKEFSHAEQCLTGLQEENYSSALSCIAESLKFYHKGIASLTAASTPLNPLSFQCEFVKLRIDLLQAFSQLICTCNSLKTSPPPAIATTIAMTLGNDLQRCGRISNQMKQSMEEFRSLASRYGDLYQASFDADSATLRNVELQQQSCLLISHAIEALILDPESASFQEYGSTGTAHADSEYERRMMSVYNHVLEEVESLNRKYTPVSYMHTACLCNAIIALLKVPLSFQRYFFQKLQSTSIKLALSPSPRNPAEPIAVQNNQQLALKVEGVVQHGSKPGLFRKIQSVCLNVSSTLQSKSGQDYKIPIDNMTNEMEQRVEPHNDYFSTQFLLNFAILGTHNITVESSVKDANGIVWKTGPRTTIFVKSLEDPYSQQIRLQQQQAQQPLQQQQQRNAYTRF
# Some of the results follow. Only hits are listed; about a third recur on repeated control peptides.
# Assays:
# Assay in all cases: PRISMA enrichment of interactor (LFQ) in peptide spot vs all other peptide spots (log2 fold change); higher = stronger / more specific binding of the interactor to the peptide
# ACACA, Q13085 = target: ACACA, Q13085
# Method: (§1)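 PRISMA: 15-aa overlapping tiles (offset 8 aa) of 60 microproteins, plus SOS1/GLUT1 control peptides, were spot-synthesized on cellulose membranes in triplicate. Membranes were incubated with benzonase-treated HEK293T lysate, and bound proteins were identified by LC-MS/MS with LFQ. Enrichment is the log2 fold change of each protein in one spot versus all other spots. Only interactors passing the significance cutoff are listed.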
# C1QBP, Q07021 = target: C1QBP, Q07021
# Method: as §1
# C3, P01024 = target: C3, P01024
# Method: as §1
# CHCHD2, Q9Y6H1 = target: CHCHD2, Q9Y6H1
# Method: as §1
# HEATR3, Q7Z4Q2 = target: HEATR3, Q7Z4Q2
# Method: as §1
# HK2, P52789 = target: HK2, P52789
# Method: as §1
# NDUFS7, O75251 = target: NDUFS7, O75251
# Method: as §1
# NELFA, Q9H3P2 = target: NELFA, Q9H3P2
# Method: as §1
# NPM3, O75607 = target: NPM3, O75607
# Method: as §1
# OBSL1, O75147 = target: OBSL1, O75147
# Method: as §1
# PIN1, Q13526 = target: PIN1, Q13526
# Method: as §1
# REXO4, Q9GZR2 = target: REXO4, Q9GZR2
# Method: as §1
# RIC8A, Q9NPQ8 = target: RIC8A, Q9NPQ8
# Method: as §1
# SNX9, Q9Y5X1 = target: SNX9, Q9Y5X1
# Method: as §1
# TALDO1, P37837 = target: TALDO1, P37837
# Method: as §1
# TBC1D10B, Q4KMP7 = target: TBC1D10B, Q4KMP7
# Method: as §1
# TELO2, Q9Y4R8 = target: TELO2, Q9Y4R8
# Method: as §1
# TF, P02787 = target: TF, P02787
# Method: as §1
# ACAA2, P42765 = target: ACAA2, P42765
# Method: as §1
# ARIH1, Q9Y4X5 = target: ARIH1, Q9Y4X5
# Method: as §1
# ASS1, P00966 = target: ASS1, P00966
# Method: as §1
# ATP6V1H, Q9UI12 = target: ATP6V1H, Q9UI12
# Method: as §1
# CSNK2A2, P19784 = target: CSNK2A2, P19784
# Method: as §1
# DAP3, P51398 = target: DAP3, P51398
# Method: as §1
# ERLIN1, O75477 = target: ERLIN1, O75477
# Method: as §1
# GPAT4, Q86UL3 = target: GPAT4, Q86UL3
# Method: as §1
# GPATCH4, Q5T3I0 = target: GPATCH4, Q5T3I0
# Method: as §1
# GPBP1, Q86WP2 = target: GPBP1, Q86WP2
# Method: as §1
# GTF2I, P78347 = target: GTF2I, P78347
# Method: as §1
# HBA1, P69905 = target: HBA1, P69905
# Method: as §1
# HBB, P68871 = target: HBB, P68871
# Method: as §1
# HCFC1, P51610 = target: HCFC1, P51610
# Method: as §1
# HERC2, O95714 = target: HERC2, O95714
# Method: as §1
# HPD, P32754 = target: HPD, P32754
# Method: as §1
# INTS7, Q9NVH2 = target: INTS7, Q9NVH2
# Method: as §1
# KIF22, Q14807 = target: KIF22, Q14807
# Method: as §1
# LSM4, Q9Y4Z0 = target: LSM4, Q9Y4Z0
# Method: as §1
# MRPL44, Q9H9J2 = target: MRPL44, Q9H9J2
# Method: as §1
# MRPS21, P82921 = target: MRPS21, P82921
# Method: as §1
# NUP155, O75694 = target: NUP155, O75694
# Method: as §1
# NUSAP1, Q9BXS6 = target: NUSAP1, Q9BXS6
# Method: as §1
# PDAP1, Q13442 = target: PDAP1, Q13442
# Method: as §1
# PRMT3, O60678 = target: PRMT3, O60678
# Method: as §1
# RPF2, Q9H7B2 = target: RPF2, Q9H7B2
# Method: as §1
# SMU1, Q2TAY7 = target: SMU1, Q2TAY7
# Method: as §1
# TIA1, P31483 = target: TIA1, P31483
# Method: as §1
# TRPT1, Q86TN4 = target: TRPT1, Q86TN4
# Method: as §1
binder,measurement,setting,value
RRRPPPALNAMSLGP [RNF10],PRISMA enrichment of interactor (log2),"ACACA, Q13085",4.67
same,PRISMA enrichment of interactor (log2),"C1QBP, Q07021",6.72
same,PRISMA enrichment of interactor (log2),"C3, P01024",5.3
same,PRISMA enrichment of interactor (log2),"CHCHD2, Q9Y6H1",4.36
same,PRISMA enrichment of interactor (log2),"HEATR3, Q7Z4Q2",5.34
same,PRISMA enrichment of interactor (log2),"HK2, P52789",5.16
same,PRISMA enrichment of interactor (log2),"NDUFS7, O75251",7.66
same,PRISMA enrichment of interactor (log2),"NELFA, Q9H3P2",3.93
same,PRISMA enrichment of interactor (log2),"NPM3, O75607",3.98
same,PRISMA enrichment of interactor (log2),"OBSL1, O75147",7
same,PRISMA enrichment of interactor (log2),"PIN1, Q13526",4.53
same,PRISMA enrichment of interactor (log2),"REXO4, Q9GZR2",7.38
same,PRISMA enrichment of interactor (log2),"RIC8A, Q9NPQ8",4.67
same,PRISMA enrichment of interactor (log2),"SNX9, Q9Y5X1",4.28
same,PRISMA enrichment of interactor (log2),"TALDO1, P37837",4.37
same,PRISMA enrichment of interactor (log2),"TBC1D10B, Q4KMP7",4.52
same,PRISMA enrichment of interactor (log2),"TELO2, Q9Y4R8",5.06
same,PRISMA enrichment of interactor (log2),"TF, P02787",5.23
VMVPLVGLIHLGWYR [MKKS],PRISMA enrichment of interactor (log2),"ACAA2, P42765",5.7
same,PRISMA enrichment of interactor (log2),"ARIH1, Q9Y4X5",4.39
same,PRISMA enrichment of interactor (log2),"ASS1, P00966",4.43
same,PRISMA enrichment of interactor (log2),"ATP6V1H, Q9UI12",4.78
same,PRISMA enrichment of interactor (log2),"CSNK2A2, P19784",6.12
same,PRISMA enrichment of interactor (log2),"DAP3, P51398",5.96
same,PRISMA enrichment of interactor (log2),"ERLIN1, O75477",6.35
same,PRISMA enrichment of interactor (log2),"GPAT4, Q86UL3",4.47
same,PRISMA enrichment of interactor (log2),"GPATCH4, Q5T3I0",4.87
same,PRISMA enrichment of interactor (log2),"GPBP1, Q86WP2",3.84
same,PRISMA enrichment of interactor (log2),"GTF2I, P78347",5.65
same,PRISMA enrichment of interactor (log2),"HBA1, P69905",3.98
same,PRISMA enrichment of interactor (log2),"HBB, P68871",4.42
same,PRISMA enrichment of interactor (log2),"HCFC1, P51610",5.49
same,PRISMA enrichment of interactor (log2),"HERC2, O95714",5.9
same,PRISMA enrichment of interactor (log2),"HPD, P32754",3.83
same,PRISMA enrichment of interactor (log2),"INTS7, Q9NVH2",4.98
same,PRISMA enrichment of interactor (log2),"KIF22, Q14807",12.5
same,PRISMA enrichment of interactor (log2),"LSM4, Q9Y4Z0",5.29
same,PRISMA enrichment of interactor (log2),"MRPL44, Q9H9J2",6.07
same,PRISMA enrichment of interactor (log2),"MRPS21, P82921",5.13
same,PRISMA enrichment of interactor (log2),"NUP155, O75694",4.89
same,PRISMA enrichment of interactor (log2),"NUSAP1, Q9BXS6",5.98
same,PRISMA enrichment of interactor (log2),"PDAP1, Q13442",5.63
same,PRISMA enrichment of interactor (log2),"PRMT3, O60678",4.79
same,PRISMA enrichment of interactor (log2),"RPF2, Q9H7B2",4.31
same,PRISMA enrichment of interactor (log2),"SMU1, Q2TAY7",4.48
same,PRISMA enrichment of interactor (log2),"TIA1, P31483",4.27
same,PRISMA enrichment of interactor (log2),"TRPT1, Q86TN4",3.86

# Rewritten tab-delimited: entries from further up
binder	measurement	setting	value
RRRPPPALNAMSLGP [RNF10]	PRISMA enrichment of interactor (log2)	ACACA, Q13085	4.67
same	PRISMA enrichment of interactor (log2)	HK2, P52789	5.16
same	PRISMA enrichment of interactor (log2)	NDUFS7, O75251	7.66
same	PRISMA enrichment of interactor (log2)	NPM3, O75607	3.98
same	PRISMA enrichment of interactor (log2)	TALDO1, P37837	4.37
same	PRISMA enrichment of interactor (log2)	TBC1D10B, Q4KMP7	4.52
same	PRISMA enrichment of interactor (log2)	TELO2, Q9Y4R8	5.06
VMVPLVGLIHLGWYR [MKKS]	PRISMA enrichment of interactor (log2)	HBB, P68871	4.42
